Measured values taken from paper PMC12391444.
Results are given in words; binding and its absence hold for the method and conditions named. In cells and extracts the contact can be indirect. Some entries that bind do so weakly or less than the wild type.

Experiments:
[1] = biological target: Transforming acidic coiled-coil-containing protein 3 (TACC3), endogenous (human (endogenous in PLC/PRF/5 and Huh7)) (UniProt Q9Y6A5); test: co-IP; co-IP with western blotting in PLC/PRF/5 and Huh7 cells, endogenous proteins
[2] = biological target: HA-tagged transforming acidic coiled-coil-containing protein 3 (TACC3) (UniProt Q9Y6A5); test: co-IP; co-IP with western blotting in HEK-293T cells, exogenous proteins

Substance | binding [1] | binding [2]
poly(A)-binding protein cytoplasmic 1 (PABPC1), endogenous (from UniProt P11940 1-636) | binds | 
poly(A)-binding protein cytoplasmic 1 (PABPC1), exogenous in HEK293T cells (from UniProt P11940 1-636) |  | binds
